From patent US20240190990A1 (BEIGENE SWITZERLAND, published 2024)
Positions count from the first letter of the chain named. Names and notes keep the numbering of the source. These are yes or no findings as the source states them, for the method shown. Some binding calls cover weakened binding; strength is not graded here.

By UniProt entry, the sequences of proteins in these tests, tags left out. Where a name states a change or a piece, a line headed by the entry shows the natural chain unless it says otherwise.
UniProt P06731: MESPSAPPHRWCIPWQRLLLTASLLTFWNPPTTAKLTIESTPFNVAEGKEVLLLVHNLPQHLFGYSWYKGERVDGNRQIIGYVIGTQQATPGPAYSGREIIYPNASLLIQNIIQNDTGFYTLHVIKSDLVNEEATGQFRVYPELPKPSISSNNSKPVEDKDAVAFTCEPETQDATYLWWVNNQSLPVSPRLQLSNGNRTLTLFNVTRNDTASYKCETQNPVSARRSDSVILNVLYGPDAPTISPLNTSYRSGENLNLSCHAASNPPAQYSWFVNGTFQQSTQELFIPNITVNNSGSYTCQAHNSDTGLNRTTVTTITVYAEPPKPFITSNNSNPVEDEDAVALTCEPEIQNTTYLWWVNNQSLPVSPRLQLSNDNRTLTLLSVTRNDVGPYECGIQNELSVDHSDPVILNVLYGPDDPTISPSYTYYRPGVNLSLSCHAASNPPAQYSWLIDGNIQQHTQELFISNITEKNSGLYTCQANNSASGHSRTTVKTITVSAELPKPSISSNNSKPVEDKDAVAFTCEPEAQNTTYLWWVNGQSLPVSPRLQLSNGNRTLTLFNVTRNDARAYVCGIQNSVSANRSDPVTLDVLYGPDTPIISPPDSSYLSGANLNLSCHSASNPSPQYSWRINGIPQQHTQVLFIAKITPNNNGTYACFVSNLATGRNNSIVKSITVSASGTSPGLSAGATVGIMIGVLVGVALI

B1: BGA135 (antibody, human IgG1, kappa, V domains shown)
VH: QVQLVQSGAEVKKPGASVKVSCKASGYIFTSYWLHWVRQAPGQGLEWIGYINPNTGYTNYSQKFQGRVTMTRDTSTSTVYMELSSLRSEDTAVYYCAREYGNYNYPLDYWGQGTLVTVSS
VL: DIQMTQSPSSLSASVGDRVTITCRASENIYGYLAWYQQKPGKSPKLLIYNAKNLVEGVPSRFSGSGSGTDFTLTISSLQPEDVATYYCQHHYGTPYTFGQGTKVEIKR
B2: BGA136 (antibody, human IgG1, kappa, V domains shown)
VH: B1 VH with V68A, R72A
VL: B1 VL
B3: BGA137 (antibody, human IgG1, kappa, V domains shown)
VH: B1 VH with V79A
VL: B1 VL
B4: BGA138 (antibody, human IgG1, kappa, V domains shown)
VH: B1 VH with V68A, R72A, V79A
VL: B1 VL
B5: BGA131A (antibody, human IgG1, kappa, V domains shown)
VH: B1 VH with N52T
VL: B1 VL with S43V
B6: BGA131B (antibody, human IgG1, kappa, V domains shown)
VH: B1 VH with N54Q
VL: B1 VL with S43V
B7: BGA131C (antibody, human IgG1, kappa, V domains shown)
VH: B1 VH with N59S
VL: B1 VL with S43V
B8: BGA131D (antibody, human IgG1, kappa, V domains shown)
VH: B1 VH with N102G
VL: B1 VL with S43V
B9: BGA131E (antibody, human IgG1, kappa, V domains shown)
VH: B1 VH with N104Q
VL: B1 VL with S43V
B10: BGA131 (antibody, human IgG1, kappa, V domains shown)
VH: B1 VH
VL: B1 VL with S43V
B11: BGA132 (antibody, human IgG1, kappa, V domains shown)
VH: B1 VH with V68A, R72A
VL: B1 VL with S43V
B12: BGA133 (antibody, human IgG1, kappa, V domains shown)
VH: B1 VH with V79A
VL: B1 VL with S43V
B13: BGA134 (antibody, human IgG1, kappa, V domains shown)
VH: B1 VH with V68A, R72A, V79A
VL: B1 VL with S43V
B14: BGA113 variant L92E (antibody, V domains shown)
VH: B1 VH with W33Y, N54Q, N59S, S61A
VL: DIQMTQSPSSLSASVGDRVTITCRASENQYGYLAWYQQKPGKVPKLLIYNYKNLVEGVPSRFSGSGSGTDFTLTISSLQPEDVATYYCQHHEGTPYTFGQGTKVEIK

Each binder was assayed against human CEA (form used in the assay not stated) (human) (UniProt P06731) (assay: assay not named).

binding, binds:
B1
B2
B3
B4
B5
B6
B7
B8
B9
B10
B11
B12
B13

What follows are binders tested against soluble human CEA (amino acids 1-687 of huCEA, C-terminal 6xHis) (human) (UniProt P06731) (assay: SPR and FACS of IgG variants).

binding, binds:
B14
